Laboratory results published in patent publication US12509451B2, “Heteroaryl amide inhibitors of CD38” (NAPA THERAPEUTICS LTD., priority 2020, dated 2025).
At least one compound was matched to its structure with a doubt left.

Biological target: T1, CD38 (Mus musculus, UniProt P56528)
T1 construct: aged mice (male C57BL6/J, 22 months old) were fasted for 4 hr; from tissue; host or cells: C57BL6/J mice (aged, DIO obese or LPS-challenged); liver, spleen, plasma
T1 sequence (P56528 1-304): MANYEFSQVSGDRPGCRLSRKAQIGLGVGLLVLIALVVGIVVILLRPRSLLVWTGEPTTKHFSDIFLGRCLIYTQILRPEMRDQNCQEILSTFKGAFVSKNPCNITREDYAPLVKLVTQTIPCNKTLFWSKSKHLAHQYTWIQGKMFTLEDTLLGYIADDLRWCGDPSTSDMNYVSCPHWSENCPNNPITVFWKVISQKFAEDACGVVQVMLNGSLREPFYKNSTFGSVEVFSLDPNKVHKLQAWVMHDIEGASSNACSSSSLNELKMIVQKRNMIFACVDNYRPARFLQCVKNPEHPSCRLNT
Assay: LPS-induced inflammation in mice, cytokines quantification in plasma
Type: in vivo
Conditions: 4 hour post LPS challenge, control arm 1 mg/kg
Method: The in vivo efficacy of Compound 39 against the human CD38 enzyme after LPS challenge was assessed. The effects of Compound 39 (10 mg/kg and 30 mg/kg) on inflammato cytokines, inflammation markers and NAD+ levels at 4 h and 8 h points after LPS-induced inflammation in 12 weeks old male C57BL/6J mice were evaluated.
Animals were euthanized by terminal cardiac blood puncture immediately after terminal CO2, 4 h and 8 h after LPS administration. At necropsy, the tissues (Liver, Plasma, Spleen, Kidney, Lungs, Heart, Visceral Adipose Tissue, Muscle-Gastrocnemius) were collected and quick frozen in liquid nitrogen. The blood was collected in a BD Microtainer® K2EDTA Additive Tube, centrifuge at 1000 g for 10 min at 4° C. and plasma was store at −80° C.).

C[C@@H]1C[C@H]2[C@@H]3CCC4=CC(=O)C=C[C@]4(C)[C@@]3(F)[C@@H](O)C[C@]2(C)[C@@]1(O)C(=O)CO [Dexamethasone, reference compound]
statistically significant decrease: plasma IL-6 | plasma IP-10 | plasma TNFα
